Among all 190,000 compounds or so, about 110 (0.058%) were called active. Inconclusive means that the source gave no clear call. Such entries were picked first, then a sample of the others.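 The calls were made as follows: active = fluorescent GTP binding to Rab7 beads changed by at least 20 points from the 100% baseline, either direction, mostly lower; inconclusive = compound itself probably fluorescent, or too few beads counted; inactive = the rest.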
tested on: Rab7 GTPase wild type (dog), Bodipy-FL-GTP binding; assay: wildtype dog Rab7 nucleotide binding alteration – biochemical, multiplex bead flow cytometry, primary screen (AID 758); details: GST-Rab7 beads, fluorescent GTP binding, at 10 µM, actives lie on both sides;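 also: median green fluorescence of bound Bodipy-FL-GTP per Rab7 bead population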

Compound	GTP binding activity (percent of control)
Cc1c(N=Nc2c(O)[nH]c(=S)[nH]c2=O)c(=O)n(-c2ccccc2)n1C	inactive: 101%
CC(C)C1(C)N=C(c2nc3ccccc3cc2C(=O)O)NC1=O (stereo unspecified)	inactive: 100%
CCn1c(O)c(C=Nc2ccc(S(N)(=O)=O)cc2)c(=O)n(CC)c1=S	inconclusive: 103%
c1ccc(-c2[nH]c[n+](CC3CO3)c2-c2ccccc2)cc1 (stereo unspecified)	inconclusive: 109% [untreated = 100%, excess cold GTP = 0%]
CCN(CC)CCNCC(=O)Nc1ccc(Cl)cc1C(=O)c1ccccc1	inconclusive: 106%
COCCN1Cc2cc(=O)n3c([nH]c4ccccc43)c2C1=N	inconclusive: 97%
CC(C)(C)C(=O)OCC12CCC(O1)C1(C)C(=O)OCC21 (stereo unspecified)	inconclusive: 100%
CCCCn1c(O)c(C(C)=NCc2ccc(F)cc2)c(=O)[nH]c1=O	inconclusive: 102%
Cc1cc(C)cc(N2C(=O)NC(=O)/C(=C\c3cc(C)n(C)c3C)C2=O)c1	inconclusive: 92%
O=C1NC(=O)C(C/C=C/c2ccccc2)C(=O)N1	inconclusive: 100%
Cc1nn(Cc2ccccc2Cl)c(Cl)c1C(=O)O	inconclusive: 100%
CCOC(=O)c1c(NC(=O)c2c(N)n(CCCOC)c3nc4ccccc4nc23)sc2c1CCCC2	inconclusive: 80%
CC(=O)C1C(=O)NC23CCCCC2C1c1ccccc1O3 (stereo unspecified)	inconclusive: 102%
Cc1nc2cc(C(=O)N3CCC4(CC3)OCCO4)ccc2n1-c1cccc(F)c1	inconclusive: 95%
CCCC(=O)NC(Oc1ccc(C(C)=O)cc1)C(Cl)(Cl)Cl (stereo unspecified)	inactive: 94%
CCC(C)N1Cc2ccccc2C1=N (stereo unspecified)	inconclusive: 108%
Cc1cc(C)c(C2=NOC(O)(C(F)(F)F)C2)c(=O)[nH]1 (stereo unspecified)	inconclusive: 95%
CCC(=NCCOc1ccc(Cl)cc1)c1c(O)n(C)c(=O)n(C)c1=O	inactive: 98%
Cc1ccc(CCN2CC(C(=O)N3CCC4(CC3)OCCO4)CC2=O)cc1 (stereo unspecified)	inconclusive: 94%
COc1ccccc1N1CCN(Cc2cccc(OC)c2O)CC1	inconclusive: 101%
CNCCc1nc(N)n[nH]1	inconclusive: 103%
O=c1c2ccccc2ncn1-c1ccc([N+](=O)[O-])c(C(F)(F)F)c1	inconclusive: 105%
CCCSP1(=S)NCCCO1 (stereo unspecified)	inconclusive: 97%
CC(C)(C)c1ccc(C(=O)C2CCCN(C3CCC3)C2)cc1 (stereo unspecified)	inactive: 102%
N=Cc1c(O)n(-c2cccc(Cl)c2)c(=O)[nH]c1=O	inconclusive: 99%
CCCCN1C(=O)/C(=C\c2ccco2)C(=O)N(CCc2ccccc2)C1=O	inconclusive: 86%

Quoted from the listing.
Under GTP binding activity (percent of control), CCC(=NCCOc1ccc(Cl)cc1)c1c(O)n(C)c(=O)n(C)c1=O has inactive: 98%
Under GTP binding activity (percent of control), CCCSP1(=S)NCCCO1 (stereo unspecified) has inconclusive: 97%

Source: PubChem BioAssay AID758 (NMMLSC, 2007)
